From publication PMC1950564
These are yes or no findings as the source states them, for the method shown. Some binding calls cover weakened binding; strength is not graded here.

Sequences of proteins named here, by UniProt entry; tags and fusion partners are left off. Residues count along the entry.
UniProt Q92854, residues 22-862: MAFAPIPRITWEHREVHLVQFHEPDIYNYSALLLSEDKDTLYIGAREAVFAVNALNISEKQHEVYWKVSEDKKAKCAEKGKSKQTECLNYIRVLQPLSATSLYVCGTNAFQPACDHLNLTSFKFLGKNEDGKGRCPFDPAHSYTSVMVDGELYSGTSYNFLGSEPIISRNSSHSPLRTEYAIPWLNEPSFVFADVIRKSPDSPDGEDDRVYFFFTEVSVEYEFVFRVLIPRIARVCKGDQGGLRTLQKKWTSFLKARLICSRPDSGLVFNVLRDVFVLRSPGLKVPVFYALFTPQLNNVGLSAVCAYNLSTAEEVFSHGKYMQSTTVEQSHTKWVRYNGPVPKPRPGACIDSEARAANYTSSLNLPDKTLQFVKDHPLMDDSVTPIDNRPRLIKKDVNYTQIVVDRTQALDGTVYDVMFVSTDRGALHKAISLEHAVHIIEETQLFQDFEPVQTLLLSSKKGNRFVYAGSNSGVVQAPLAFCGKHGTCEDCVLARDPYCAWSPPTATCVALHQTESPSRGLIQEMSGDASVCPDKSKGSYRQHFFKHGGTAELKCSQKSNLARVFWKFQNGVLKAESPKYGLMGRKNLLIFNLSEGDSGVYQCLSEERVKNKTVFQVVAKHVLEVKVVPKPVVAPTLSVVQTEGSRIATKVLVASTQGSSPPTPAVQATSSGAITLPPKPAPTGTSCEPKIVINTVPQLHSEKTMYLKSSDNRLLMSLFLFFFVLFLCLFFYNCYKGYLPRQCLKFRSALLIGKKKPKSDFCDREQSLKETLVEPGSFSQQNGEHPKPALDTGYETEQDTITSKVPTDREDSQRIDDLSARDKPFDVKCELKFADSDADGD

Target: CD100 (Semaphorin 4D) (human (endogenous in YTS and NK cells)) (UniProt Q92854)
Test: two-dimensional non-reducing/reducing SDS-PAGE of an immunoprecipitate; lysate of surface 125I-labelled YTS cells (0.5% Nonidet P-40, 10 mM iodoacetamide, 5 mM EDTA, PBS pH 8.3) immunoprecipitated with mAb 172.4; first dimension non-reducing, second dimension reducing; autoradiography

With “CD100 (Semaphorin 4D) (from UniProt Q92854 22-862)” the binding was “binds”.
